Laboratory results: PubChem BioAssay AID686943 (Drosophila RNAi Screening Center, 2013)
Screen: 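Knockdowns that increase or decrease active ERK after insulin receptor stimulation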 (primary screen). Cell system: Drosophila S2R+ haemocyte-like cells expressing YFP-tagged ERK (Rolled). Reagent: long dsRNA against Drosophila genes. Conditions: insulin stimulation versus unstimulated cells; dose and duration not given. Measured: 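Per-plate z-scores of phospho-ERK immunostaining normalised to YFP-tagged ERK, measured with and without insulin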. Reading the numbers: replicate 1, z-score of dpERK with insulin and replicate 2, z-score of dpERK with insulin: higher = more active ERK per ERK-YFP after insulin; replicate 1, z-score of dpERK under basal conditions: higher = more basal active ERK per ERK-YFP; replicate 1, z-score of ERK-YFP with insulin: higher = more YFP-tagged ERK signal.
The deposit covers about 23,000 reagents; shown is an unselected part of those that have a named target and a result. 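Extra replicates exist only for a retested subset of genes; insulin dose and duration not given; both raised and lowered dpERK matter.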 A plus sign joins genes that one reagent is predicted to hit. Not stated in the record: the amount of reagent, the time to read-out.

target,amplicon,"replicate 1, z-score of dpERK with insulin","replicate 2, z-score of dpERK with insulin","replicate 1, z-score of dpERK under basal conditions","replicate 1, z-score of ERK-YFP with insulin"
hpRNA:CR32205,DRSC09610,-0.49,-0.06,-1.58,0.13
hpRNA:CR32205,DRSC09890,-0.33,-0.28,0.82,0.58
NUCB1,DRSC22137,2.71,-0.31,-0.96,-0.15
Pus10,DRSC00629,0.6,-0.25,-0.24,-0.42
CG5861,DRSC02907,0.68,0.03,-0.19,-0.78
CG6686,DRSC02979,3.45,3.75,-1.24,0.2
sNPF-R,DRSC10836,-0.01,1.28,1.07,0.29
CG32212 + hpRNA:CR33940,DRSC09618,-0.65,-0.59,0.32,0.69
CG31463,DRSC14346,-0.49,-0.35,-0.94,0.46
Dhc98D,DRSC16645,-0.68,0.09,-0.24,0.64
CG31678,DRSC02618,1.26,-0.03,0.87,-0.88
CG31678,DRSC02619,1.49,0.11,-0.18,-0.49
CG8192,DRSC07101,-1.4,-3.93,-3.02,0.38
Tapdelta,DRSC05946,0.44,-0.49,0.44,-0.14
CG17806,DRSC15276,0.15,0.52,0.13,0.43
chk,DRSC04994,0.66,0.68,2.4,-0.53
Slc25A46a,DRSC20125,0.34,0.94,0.17,0.08
dpr7,DRSC17109,-1.18,-1.55,-0.75,1.23
CG14556,DRSC14899,1.02,0,0.14,-0.19
CG13653,DRSC14653,0.22,-0.1,0.79,-0.1
CG6073,DRSC15962,0.31,0.39,0.57,0.46
CG6073,DRSC22742,0.51,0.19,-0.21,-1.35
Cpr49Ah,DRSC07204,-0.35,1.01,-0.5,0.16
RpL37-1,DRSC20149,1.04,-0.88,0.25,-0.52
RpL37-1,DRSC21646,-1.04,-1.42,3.73,-0.83
HP1c,DRSC16166,-0.06,-0.16,-0.18,0.19
CG43071,DRSC05753,0.59,0.31,-2.01,-0.64
Hsp23,DRSC11188,0.41,0.84,0.73,0.06
CG15563,DRSC15101,-1.18,-0.1,0.62,1.4
CG10973,DRSC09813,0.2,-0.57,2.11,1.57
nAChRalpha4,DRSC11925,-0.41,-0.2,0.19,0.54
nAChRalpha4,DRSC11929,1.14,0.5,1.54,-0.3
CG32354,DRSC10763,-0.36,-2.08,0.23,0.23
CG32354,DRSC10775,1.57,-1.27,0.68,-0.39
CG32354,DRSC21919,-0.39,0.9,-0.35,-0.16
ZnT49B,DRSC07225,0.91,1.22,-0.27,0.11
CG13640,DRSC14639,0.25,0,0.59,0.75
sphinx2,DRSC22188,-0.46,0.01,-0.46,0.3
zda,DRSC06936,0.03,0.52,1.42,1.31
